From PubChem BioAssay AID2685 (National Center for Advancing Translational Sciences (NCATS), 2010)
About 2,100 (0.66%) of roughly 320,000 compounds were called active. The shares of active, inactive and inconclusive entries below differ from those in the screen. Calls come from the whole dose curve; as a rule, active = well fitted inhibition curve with a large enough effect in the signal ratio, with a control signal flat (not every such curve was filed as active); inconclusive = small, poorly fitted or top-dose-only effect, or effect the other way, or a change in a side signal; inactive = flat fitted curve, though single readings scatter; the % refers to the signal ratio. Potencies of inconclusive entries are doubtful fits and often do not repeat.

test: qHTS Assay for Lipid Storage Modulators in Drosophila S3 Cells; conditions: BODIPY lipid droplet fluorescence, 18-24 h, cells fed with added oleic acid; lipid storage change, negative = inhibition: at 46.1 µM (top of the series) unless noted
Method in brief: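 Laser-scanning cytometry quantifies lipid droplet accumulation (500–530 nm total intensity; droplet/cell object ratio) in oleic acid-fed (400 uM added) Drosophila S3 cells treated with a concentration series. 20 uM Triacsin C defined 100% inhibition.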
% is set by controls: 0 for no effect and ±100 for the full control effect; potency is the fitted concentration of half-maximal effect.

Lipid storage change, negative = inhibition, inactive:
COc1ccc(NS(=O)(=O)c2ccc(C)c(C(=O)N3CC(C)OC(C)C3)c2)cc1 (centres undefined), Cc1nn(CCCC(=O)NCc2ccc(Cl)cc2)c(C)c1[N+](=O)[O-]

Lipid storage change, negative = inhibition, inconclusive:
CCN(CC(=O)NC)S(=O)(=O)c1ccc(C)cc1 -10.3%, c1ccc(CSc2ccc(-c3cccnc3)nn2)cc1 6.2%, CC1CC(C)CN(c2ccc(-n3cnnn3)cc2[N+](=O)[O-])C1 (centres undefined) -21%, CN(C)c1ccc(/C=N/NC(=O)c2cc(-c3ccc4c(c3)OCO4)n[nH]2)cc1 0.488%, Cc1c(C(=O)O)sc2nc(/C=C/c3ccccc3OC(F)F)[nH]c(=O)c12 -37.7%, CCOC(=O)COc1ccc(/C=C2/SC(=Nc3ccccc3)N(Cc3cccnc3)C2=O)cc1OC 13%, CCCn1[nH]cc(SC)c(=O)c1=O -35.5%, COc1ccc(CCNC(=O)CSCC(=O)Nc2ccccc2)cc1OC 27.4%, COc1ccc(C(=O)C2CCCN(C(=O)c3cccc(Cn4cccn4)c3)C2)cc1F (centres undefined) -69.5%, COc1ccc(OC)c(S(=O)(=O)N2CCCC(C(=O)N3CCCC3)C2)c1 (centres undefined) 1.82%, O=C(Nc1ccccc1N1CCCCC1)C1CCN(S(=O)(=O)c2ccccc2C(F)(F)F)CC1 19.6%, COc1cc2cc(C)c(SCC(=O)N3CCN(C(=O)c4ccco4)CC3)nc2cc1OC -6.18%, CC(=O)NC(N(C#N)c1nc(Cl)nc(N(C)C)n1)C(Cl)(Cl)Cl (centres undefined) -20.2%, COc1ccc(N2CCN(C(CNC(=O)C(=O)NCCc3c[nH]c4ccccc34)c3ccco3)CC2)cc1 (centres undefined) 21.6%, O=C(CCCN1C(=O)NC2(CCCC2)C1=O)Nc1cccc(S(=O)(=O)N2CCOCC2)c1, O=S(=O)(c1ccc(F)cc1)N1CCC(N2CCCC2)CC1 -27.4%, COc1ccccc1OCCCn1c(C)c(C#N)c2ccccc21 25.2%, COc1cc(/C=N/NC(=O)c2ccc(N(C)S(=O)(=O)c3ccccc3)cc2)cc(OC)c1OC -86.1%, Cn1c(N)c(C(=O)COC(=O)C2(c3cccc(F)c3)CCCC2)c(=O)n(C)c1=O -77.5%, CCn1c(=O)cc(O)c2ccccc21 -9.65%, Nc1[nH]n(-c2ccccc2)c(=O)c1N=Nc1ccccc1[N+](=O)[O-] -2.4%, Cc1oc2c(c(=O)c1C)C(=O)CC(c1ccccc1)C2 (centres undefined) 23.3%, S=C(NCc1ccccc1)N1CCN(c2ccccc2)CC1 46.6%, CCN(CC)Cc1cc(Nc2ccnc3cc(Cl)ccc23)ccc1O 6.51%, O=C(NCCc1ccccn1)c1ccc(S(=O)(=O)N2CCCCCC2)cc1 19.6%

Potency, inconclusive:
CCCCCCOc1ccc(/C(N)=N/O)cc1 0.146 µM [falling, full curve], CN(CCOc1ccc(-c2ccn(S(=O)(=O)c3cccc4ccccc34)n2)cc1)c1ccccn1 2.06 µM [activator, partial curve], COC(=O)c1[nH]c2cccc(OC)c2c1NC(=O)CCN1CCC(C(N)=O)CC1 3.66 µM [activator, full curve, poor fit], Oc1ccc(CNc2ccccc2O)cc1 8.2 µM [activator, partial curve], Cc1ccccc1-c1ccc(=O)n(CC(=O)Nc2ccc(N3CCOCC3)cc2)n1 3.26 µM [falling, partial curve, poor fit], COc1ccc(NC(=O)CN(C)C(=O)C2CC(=O)N(Cc3ccc(C)cc3)C2)cc1 (centres undefined) 11.6 µM [activator, partial curve, poor fit], Cc1nc2nc3c(cn2n1)C(=O)CC(C)(C)C3 32.6 µM [activator, single point], O=C(Cc1ccc(Cl)cc1)NCC(=O)N1CCN(c2ccccc2)CC1 3.26 µM [activator, single point], CCC1SC(N)=NC1=O (centres undefined) 0.461 µM [falling, full curve, poor fit], O=c1c2ccccc2n2cnnc2n1-c1ccccc1 25.9 µM [activator, single point], Cc1ccnc2nc(C(=O)N3CCN(S(=O)(=O)c4ccccc4)CC3)nn12 0.146 µM [activator, full curve, poor fit], COc1ccc(-c2ccccc2)cc1NCc1ccccc1C 20.6 µM [activator, partial curve]
